Reference: patent publication US20190375846A1
Changes are numbered by the printed parent chain. No constants are given. Whether binding was seen depends on the method and setting. For some assays here: Binding calls can cover weak binding; strength is not graded here.

B1: D-A6 IgG1 (antibody, V domains shown)
VH: EVQLVESGGGLVQPGGSLRLSCAASGFSLSTSGYGVGWVRQAPGKGLEWLAHIWWDDDKYYVDSVKGRFTISRDNAKNSLYLQMNSLRAEDTAVYYCARTRQYFPFAYWGQGTLVTVSS
VL: EIVLTQSPATLSLSPGERATLSCRASQSVGSNLAWYQQKPGQAPRLLIYSASYRYTGIPARFSGSGSGTDFTLTISSLEPEDFAVYYCQQYSTDPLTFGGGTKVEIK
B2: I-C2 IgG1 (antibody, V domains shown)
VH: B1 VH with Q102L
VL: B1 VL with S28N, Y53N, T56S
B3: G-G10 IgG1 (antibody, V domains shown)
VH: B1 VH with S32F
VL: B1 VL with S31T, S50Y, T93N

Experiments:
Insulin [1] = assay: ELISA on coated insulin
Insulin [2] = assay: ELISA on coated insulin, IgG 0.001-1 µg/ml, OD 450 nm
[3] = biological target: cynomolgus monkey GITR at the cell surface (cynomolgus monkey); assay: flow cytometry on murine cells stably transfected with cyno GITR, IgG1 13.7-10000 ng/ml, MFI
[4] = biological target: cynomolgus monkey GITR at the cell surface (cynomolgus monkey); assay: flow cytometry, cyno GITR-transfected murine blastoma cells, 10,000-13.7 ng/ml

Binder	binding (Insulin [1])	binding (Insulin [2])	binding [3]	binding [4]
B1	no binding	no binding (tested: 1 µg/ml)	binds	binds
B2			binds	binds
B3			binds	binds
